# Source: article PMC6390652 (Toxicological Sciences, 2018)
# System: human GI microtissue
# Test: MTT viability assay
# Assay type: cell-based
# Conditions: Caco-2, read-out: MTT IC50
smiles,measurement,value
CNC(=O)c1ccccc1Sc1ccc2c(/C=C/c3ccccn3)n[nH]c2c1 [Axitinib],IC50,> 100 µM
